Results published in patent US20230092648A1, “COMBINATION CONTAINING A DUOCARMYCIN DERIVATIVE-COMPRISING ANTIBODY-DRUG CONJUGATE AND THIOSULFATE” (BYONDIS B.V., priority 2020, published 2023).

Experiment: Detoxification experiments with thiol compounds: LC-MS of thiol + SYD986 in acetonitrile/water (1:1)
Details: SYD986 1 μM, thiol 6.8 mM (cysteamine)/10 mM (other thiols)

| Structure (SMILES) | formation of a reaction product with SYD986 (LC-MS) |
| --- | --- |
| O=S(=O)(O)CCS [MESNA, sodium salt of 2-mercaptoethanesulfonic acid] | did not form a reaction product |
| CC(=O)N[C@@H](CS)C(=O)O [N-Acetylcysteine] | did not form a reaction product |
| O=S(O)(O)=S [STS, sodium thiosulfate] | did react |
| Cl.NCCS [cysteamine, cysteamine hydrochloride] | did not form a reaction product |
| N[C@@H](CCC(=O)N[C@@H](CS)C(=O)NCC(=O)O)C(=O)O [glutathione, L-Glutathione] | did not form a reaction product |

Counter-ions that a name gives are not always drawn. Some compounds share one wording; it may come from a single statement.
